Results from patent US8680047B2, “Fas peptide mimetics and uses thereof” (The Trustees of the University of Pennsylvania, priority 2002, dated 2014).
Part of at least one peptide drawing is inferred or uncertain, most often the ends. Positions of bridges follow the written chain, without caps; N, C: chain ends. Residues, ends and D or L forms follow the SMILES beside them.

Sequences of proteins named here, by UniProt entry; tags and fusion partners are left off. Residues count along the entry.
UniProt P01375, 77-233 limits assumed: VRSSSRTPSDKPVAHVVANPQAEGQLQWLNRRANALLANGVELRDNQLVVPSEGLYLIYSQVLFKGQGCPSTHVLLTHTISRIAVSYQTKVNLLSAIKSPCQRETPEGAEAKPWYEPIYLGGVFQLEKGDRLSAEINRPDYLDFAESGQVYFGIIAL

How the values were obtained:
TNFα = target: T1, TNFα (Homo sapiens, UniProt P01375); experiment: Surface plasmon resonance specificity analysis, immobilized TNFα; assay type: binding; settings: SPR sensor chip
T1 construct: purchased Roche Diagnostics (Indianapolis, Ind.)

FasL = target: T2, FasL (Homo sapiens, UniProt P48023); experiment: Surface plasmon resonance (BIAcore) analysis, immobilized FasL-Flag; assay type: binding; settings: SPR sensor chip
T2 construct: Flag-tagged soluble human Fas ligand (FasL-Flag); purchased Kamiya Biomedical (Seattle, Wash.)
T2 sequence (P48023 130-281 limits assumed): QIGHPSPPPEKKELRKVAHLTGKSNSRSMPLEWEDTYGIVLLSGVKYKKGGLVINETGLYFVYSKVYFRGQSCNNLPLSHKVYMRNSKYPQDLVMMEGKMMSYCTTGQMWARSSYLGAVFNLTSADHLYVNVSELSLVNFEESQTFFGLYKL
Description: The kinetics of binding of Kp7-6, which mediated the best inhibitory activity to FasL, was performed using surface plasmon resonance (BIAcore™) analysis. […] The koff value is considered as an important indicator in the development of therapeutics with biological activity (Benveniste, M. et al. Br J Pharmacol 104, 207-221 (1991); Yiallouros, I. et al. Biochem J 331, 375-379 (1998)), and generally correlates with potent biological effects. (Moosmayer, D. et al. J Interferon Cytokine Res 16, 471-477 (1996)). […] (Berezov, A. et al. J Med Chem 44, 2565-2574 (2001)).
To assess the specificity of Kp7-6 binding interaction, Fas, FasL and TNFα were immobilized on a sensor chip. Kp7-6 bound to FasL but not to TNFα, which indicates Kp7-6 bound to FasL specifically (FIG. 3B). […] (Naismith, J. H. et al. Structure 4, 1251-1262 (1996)).
Biosensor analysis. All experiments were carried out on a BIAcore 3000 instrument (Biacore AG, Uppsala, Sweden) at 25° C. using PBS, pH 7.4, containing 0.005% surfactant P20 (Biacore AG) as the running buffer. FasL-Flag, Fas-Fc or TNFRI-Fc was immobilized on research-grade CM5 sensor chips (Biacore AG) using standard N-ethyl-N-dimethylaminopropyl carbodiimid/N-hydroxysuccinimide coupling. […] Data were analyzed with the BIA evaluation 3.0 software (Biacore AG). […]

[1] = test system: Con A-induced hepatitis model; experiment: Con A-induced hepatitis model, serum transaminase activity; assay type: in vivo, C57BL/6 mice; settings: IP pretreatment 30 min before Con A iv
Description: The biological activity of mimetic Kp7-6 was measured in vivo. FasL induced apoptosis is one of the primary and dominant pathways by which liver cells undergo apoptosis under various conditions such as viral infection, drug toxicity and other lesions. (Kakinuma, C. et al. Toxicol Pathol 27, 412-420 (1999); Famularo, G., et al. Med Hypotheses 53, 50-62 (1999); Gantner et al. supra). […] (Zhang, H. et al. Nat Biotechnol 18, 862-867 (2000); Song, E. et al. Nat Med (2003)). The antagonistic effect of Kp7-6 in vivo was tested using the Con A-induced hepatitis model. C57BL/6 mice were pretreated intraperitoneally (IP) with anti-FasL monoclonal antibody, Fas mimetic peptides or saline. After 30 min, animals were challenged intravenously with Con A or saline. The induction of liver damage and inflammatory hepatitis was evaluated by measuring the serum activities of alanine aminotransferase (ALT) and aspartate aminotransferase (AST) 12 h after Con A treatment.
Administration of Con A and Measurement of Serum Transaminase Activity. Hepatic damage was induced by injection of a single dose of 0.5 mg Con A dissolved in pyrogen-free saline and administered to mice via the tail vein. Anti-FasL monoclonal antibody (MFL-4; Kayagaki, N. et al. Proc Natl Acad Sci USA 94, 3914-3919 (1997)) or Fas mimetic peptide (Kp7-6 or Kp1-1) was diluted with pyrogen-free saline and injected in a single dose intraperitoneally 30 minutes before Con A.
Blood samples were collected from mice at 12 h after Con A injection, and the serum was taken by centrifugation. Serum activities of alanine aminotransferase (ALT) and aspartate aminotransferase (AST) were measured by Lippi-Guidi's method (Iatrozyme TA-LQ: Dia-Iatron Inc., Tokyo, Japan). (Lippi, U. et al. Clin Chim Acta 28, 431-437 (1970)).

N6803 cells = experiment: Apoptosis by TUNEL in N6803 cells with agonistic anti-Fas IgM; assay type: cell-based, human; settings: 16 h, mimetic 10, 100 and 1000 ng/ml
[2] = target: T3, FasL-Flag binding to Fas-Fc fusion protein (Homo sapiens, UniProt P48023); experiment: Solid phase ligand binding assay: inhibition of FasL-Flag binding to immobilized Fas-Fc; settings: FasL-Flag 100 ng/ml, dose-response; read-out: concentration that inhibited 50% of the FasL-Flag molecule binding to immobilized Fas-Fc
T3 construct: Flag-tagged soluble human Fas ligand (FasL-Flag); purchased Kamiya Biomedical (Seattle, Wash.)
T3 sequence (P48023 130-281 limits assumed): T2 sequence (P48023 130-281 limits assumed)

Fas = target: T4, Fas (Homo sapiens, UniProt P25445); experiment: Surface plasmon resonance specificity analysis, immobilized Fas; assay type: binding; settings: SPR sensor chip
T4 construct: human Fas extra cellular domain-LgGFc fusion protein (Fas-Fc); purchased Kamiya Biomedical (Seattle, Wash.)
T4 sequence (P25445 26-173 limits assumed): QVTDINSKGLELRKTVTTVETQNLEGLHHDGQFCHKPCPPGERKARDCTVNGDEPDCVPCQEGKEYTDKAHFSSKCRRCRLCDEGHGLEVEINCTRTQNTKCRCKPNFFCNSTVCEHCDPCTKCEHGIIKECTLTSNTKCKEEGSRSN

WS10201 cells = experiment: Apoptosis by TUNEL in WS10201 Werner syndrome cells with agonistic anti-Fas IgM; assay type: cell-based, human; settings: 16 h, mimetic 10, 100 and 1000 ng/ml
TNF-R = target: T5, TNF-R (Homo sapiens, UniProt P19438); experiment: Surface plasmon resonance specificity analysis, TNF-R; assay type: binding; settings: SPR sensor chip
T5 construct: Human recombinant TNF-receptor (I) extracellular domain-IgGFc fusion protein (TNFRI-Fc); purchased R & D systems (Minneapolis, Minn.)
T5 sequence (P19438 30-211 limits assumed): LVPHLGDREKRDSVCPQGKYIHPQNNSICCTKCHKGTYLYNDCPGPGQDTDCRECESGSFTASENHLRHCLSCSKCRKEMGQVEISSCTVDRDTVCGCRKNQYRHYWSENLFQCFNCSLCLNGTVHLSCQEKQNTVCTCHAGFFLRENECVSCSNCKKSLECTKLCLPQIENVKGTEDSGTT

[3] = test system: FasL-sensitive Jurkat cells; experiment: FasL-induced cytotoxicity assay in Jurkat cells ([3H]-thymidine incorporation); assay type: cell-based, human; settings: Fas-mediated cytotoxicity, data not shown
Description: To evaluate the effect of mimetics on Fas-mediated cytotoxicity, FasL-sensitive Jurkat cells were stimulated with soluble FasL-Flag fusion protein in the presence or absence of various concentrations of mimetics. The inhibitory effects of mimetics on Fas-mediated cytotoxicity were consistent with the results of the FasL-binding inhibition (FIG. 4). […] A concentration of 1 mM Kp7-6 protected more than 90% cells from Fas-mediated cytotoxicity (FIG. 4). […] Large dose of Kp7-6 was used in this experiment for better signal-to-noise ratio. To determine if mimetics derived from other binding sites would potentially be able to interact synergistically to block the Kp7 surface, Kp7 was used in combination with mimetics.
Cytotoxicity assay. Twenty microliters of Jurkat cells at 1×10^5 cells/ml were plated in 96-well U-bottom plates. FasL-Flag (120 ng/ml in culture medium) was preincubated with equal volume of peptide sample in PBS for 1 h at 37° C., and 20 μl of mixture was added to each well. After an incubation period of 24 h, each culture was pulsed with 1 μCi of [^3H]-thymidine for 24 h before harvesting on glass fiber filters. […] Incorporation of the radioactive label was measured by liquid scintillation counting (Wallac, Finland) and expressed as the arithmetic mean counts per minute (cpm) of triplicate cultures.

Jurkat cells = experiment: Flow cytometry assay for FasL-induced apoptosis (annexin V-FITC); assay type: cell-based, human; settings: FasL-Flag 200 ng/ml, 3 h

## N[C@@H](Cc1ccc(O)cc1)C(=O)N[C@H]1CSSC[C@@H](C(=O)N[C@@H](Cc2ccc(O)cc2)C(=O)O)NC(=O)[C@H](Cc2ccccc2)NC(=O)[C@H](Cc2c[nH]cn2)NC(=O)[C@H](CCC(=O)O)NC(=O)[C@H](CC(=O)O)NC1=O [Kp7-6, YCDEHFCY] (H-YCDEHFCY-OH; disulfide 2-7; N-terminus and C-terminus assumed)
TNFα
  binding to immobilized TNFα: not to TNFα
FasL
  binding to immobilized FasL: bound to FasL
[1]
  block of Con A-induced hepatic injury: blocked Fas-mediated hepatic injury in vivo
[1]; 12 h after Con A
  serum activity of alanine aminotransferase (ALT): reduced
  serum activity of aspartate aminotransferase (AST): reduced
N6803 cells
  apoptosis level (TUNEL) in N6803 cells: did not significantly alter apoptosis
[2]
  IC50: 150 µM
Fas
  binding to immobilized Fas: also bound to Fas
WS10201 cells
  apoptosis level (TUNEL) in WS10201 cells: greatly enhancing apoptosis
TNF-R
  binding to TNF-R: No significant binding to TNF-R was detected
[3]
  synergy in combination with members of the Kp4 mimetics: Neither Kp7-6 nor Kp7-10 used in combination with members of the Kp4 mimetics showed any significant synergy
Jurkat cells
  prevention of FasL-induced increase in Jurkat cell apoptosis (annexin V): prevented by Kp7-6 in a dose-dependent manner
